The text below walks through data of the supplement of paper PMC7666118.

The chains behind the UniProt entries cited, without tags or fusion partners. Where a name states a change or a piece, a line headed by the entry shows the natural chain unless it says otherwise.
UniProt O95479: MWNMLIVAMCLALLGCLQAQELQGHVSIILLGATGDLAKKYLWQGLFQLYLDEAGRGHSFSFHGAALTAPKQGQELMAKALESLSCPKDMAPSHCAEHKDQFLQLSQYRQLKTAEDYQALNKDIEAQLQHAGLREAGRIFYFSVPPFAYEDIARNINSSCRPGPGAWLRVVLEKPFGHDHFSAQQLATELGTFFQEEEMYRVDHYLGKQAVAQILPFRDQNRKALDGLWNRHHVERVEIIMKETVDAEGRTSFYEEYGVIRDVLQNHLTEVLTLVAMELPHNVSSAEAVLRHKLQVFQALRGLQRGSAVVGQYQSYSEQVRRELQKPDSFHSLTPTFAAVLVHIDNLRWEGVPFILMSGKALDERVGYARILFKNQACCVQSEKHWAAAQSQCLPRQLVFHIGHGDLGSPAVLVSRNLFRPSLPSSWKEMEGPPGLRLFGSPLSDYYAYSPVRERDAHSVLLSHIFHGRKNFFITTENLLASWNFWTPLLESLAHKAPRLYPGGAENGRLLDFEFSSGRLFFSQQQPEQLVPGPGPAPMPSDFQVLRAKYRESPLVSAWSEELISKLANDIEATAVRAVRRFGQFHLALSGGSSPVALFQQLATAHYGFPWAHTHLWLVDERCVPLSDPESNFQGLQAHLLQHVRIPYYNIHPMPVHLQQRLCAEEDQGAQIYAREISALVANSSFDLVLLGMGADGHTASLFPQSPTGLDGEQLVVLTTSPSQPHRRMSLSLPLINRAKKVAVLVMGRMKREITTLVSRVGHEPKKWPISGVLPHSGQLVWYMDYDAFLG
UniProt P43304: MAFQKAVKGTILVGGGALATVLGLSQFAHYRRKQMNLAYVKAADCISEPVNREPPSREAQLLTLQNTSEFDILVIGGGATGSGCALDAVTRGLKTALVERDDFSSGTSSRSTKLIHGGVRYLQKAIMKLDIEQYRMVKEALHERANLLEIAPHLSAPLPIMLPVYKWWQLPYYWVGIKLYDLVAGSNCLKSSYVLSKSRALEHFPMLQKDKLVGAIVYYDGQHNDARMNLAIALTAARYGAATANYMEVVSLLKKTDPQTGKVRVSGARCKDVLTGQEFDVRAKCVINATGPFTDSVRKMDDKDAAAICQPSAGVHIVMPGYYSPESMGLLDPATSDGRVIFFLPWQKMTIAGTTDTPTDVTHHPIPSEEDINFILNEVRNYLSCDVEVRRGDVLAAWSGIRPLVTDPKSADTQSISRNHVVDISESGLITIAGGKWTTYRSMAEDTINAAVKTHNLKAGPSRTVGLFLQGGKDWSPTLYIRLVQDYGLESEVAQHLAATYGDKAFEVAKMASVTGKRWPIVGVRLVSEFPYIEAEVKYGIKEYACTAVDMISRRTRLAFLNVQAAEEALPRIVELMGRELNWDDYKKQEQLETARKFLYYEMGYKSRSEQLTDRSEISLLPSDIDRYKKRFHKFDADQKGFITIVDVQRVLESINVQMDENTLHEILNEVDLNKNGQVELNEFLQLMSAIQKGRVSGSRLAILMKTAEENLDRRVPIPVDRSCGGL
UniProt P13807: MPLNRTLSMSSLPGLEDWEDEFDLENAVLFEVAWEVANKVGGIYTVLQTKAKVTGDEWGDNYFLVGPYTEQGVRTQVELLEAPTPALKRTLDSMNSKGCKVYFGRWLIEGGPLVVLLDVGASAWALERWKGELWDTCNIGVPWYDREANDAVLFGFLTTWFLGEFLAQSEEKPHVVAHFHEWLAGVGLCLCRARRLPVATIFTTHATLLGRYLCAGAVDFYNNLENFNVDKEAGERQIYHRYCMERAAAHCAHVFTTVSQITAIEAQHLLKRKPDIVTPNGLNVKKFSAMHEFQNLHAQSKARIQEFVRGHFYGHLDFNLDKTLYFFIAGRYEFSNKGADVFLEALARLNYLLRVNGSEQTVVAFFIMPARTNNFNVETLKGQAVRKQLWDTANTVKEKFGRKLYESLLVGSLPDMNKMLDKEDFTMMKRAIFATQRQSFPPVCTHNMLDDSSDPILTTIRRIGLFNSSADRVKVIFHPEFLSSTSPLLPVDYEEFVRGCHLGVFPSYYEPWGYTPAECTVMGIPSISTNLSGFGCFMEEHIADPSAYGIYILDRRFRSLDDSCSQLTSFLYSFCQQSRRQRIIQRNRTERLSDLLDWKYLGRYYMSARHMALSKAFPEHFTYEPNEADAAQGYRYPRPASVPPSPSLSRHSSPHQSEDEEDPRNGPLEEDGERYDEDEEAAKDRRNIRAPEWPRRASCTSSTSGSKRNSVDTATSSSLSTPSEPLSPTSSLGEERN
UniProt Q96EK6: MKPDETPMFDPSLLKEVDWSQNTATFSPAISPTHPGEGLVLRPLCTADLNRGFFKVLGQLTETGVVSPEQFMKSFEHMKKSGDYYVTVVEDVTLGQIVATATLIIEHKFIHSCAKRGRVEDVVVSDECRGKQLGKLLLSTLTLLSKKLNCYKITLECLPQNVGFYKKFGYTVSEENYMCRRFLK
UniProt Q9UII4: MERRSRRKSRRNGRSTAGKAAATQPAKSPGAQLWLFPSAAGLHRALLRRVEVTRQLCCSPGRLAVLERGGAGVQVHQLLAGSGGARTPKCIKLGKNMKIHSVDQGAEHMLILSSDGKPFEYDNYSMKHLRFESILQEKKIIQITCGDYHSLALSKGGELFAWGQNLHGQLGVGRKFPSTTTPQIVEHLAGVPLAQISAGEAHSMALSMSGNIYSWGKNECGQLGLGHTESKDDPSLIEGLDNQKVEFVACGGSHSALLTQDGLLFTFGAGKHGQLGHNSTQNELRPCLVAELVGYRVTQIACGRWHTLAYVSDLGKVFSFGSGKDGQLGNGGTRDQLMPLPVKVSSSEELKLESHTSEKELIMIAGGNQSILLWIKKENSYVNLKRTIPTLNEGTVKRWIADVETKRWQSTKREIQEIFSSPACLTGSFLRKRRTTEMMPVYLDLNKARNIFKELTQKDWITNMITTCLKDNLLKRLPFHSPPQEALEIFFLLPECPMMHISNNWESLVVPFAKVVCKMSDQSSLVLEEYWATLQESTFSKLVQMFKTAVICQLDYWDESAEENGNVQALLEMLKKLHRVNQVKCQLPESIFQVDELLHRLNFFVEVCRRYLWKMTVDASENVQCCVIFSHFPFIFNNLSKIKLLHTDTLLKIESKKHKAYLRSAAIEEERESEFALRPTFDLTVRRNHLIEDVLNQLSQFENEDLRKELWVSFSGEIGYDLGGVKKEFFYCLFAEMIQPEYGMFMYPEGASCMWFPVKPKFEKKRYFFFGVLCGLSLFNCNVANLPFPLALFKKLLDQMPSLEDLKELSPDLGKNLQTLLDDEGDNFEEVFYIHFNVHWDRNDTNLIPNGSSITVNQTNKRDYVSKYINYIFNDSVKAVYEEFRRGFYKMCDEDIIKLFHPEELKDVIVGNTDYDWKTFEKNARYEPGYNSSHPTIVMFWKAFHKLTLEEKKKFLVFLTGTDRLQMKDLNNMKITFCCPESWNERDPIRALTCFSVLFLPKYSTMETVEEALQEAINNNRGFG
UniProt O95249: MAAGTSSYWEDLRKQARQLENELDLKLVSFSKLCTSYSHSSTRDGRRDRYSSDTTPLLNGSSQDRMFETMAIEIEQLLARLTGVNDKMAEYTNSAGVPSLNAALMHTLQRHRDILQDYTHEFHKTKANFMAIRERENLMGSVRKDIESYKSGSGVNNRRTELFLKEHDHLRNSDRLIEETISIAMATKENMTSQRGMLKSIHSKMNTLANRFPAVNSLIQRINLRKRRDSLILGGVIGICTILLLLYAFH
UniProt Q9BRR8: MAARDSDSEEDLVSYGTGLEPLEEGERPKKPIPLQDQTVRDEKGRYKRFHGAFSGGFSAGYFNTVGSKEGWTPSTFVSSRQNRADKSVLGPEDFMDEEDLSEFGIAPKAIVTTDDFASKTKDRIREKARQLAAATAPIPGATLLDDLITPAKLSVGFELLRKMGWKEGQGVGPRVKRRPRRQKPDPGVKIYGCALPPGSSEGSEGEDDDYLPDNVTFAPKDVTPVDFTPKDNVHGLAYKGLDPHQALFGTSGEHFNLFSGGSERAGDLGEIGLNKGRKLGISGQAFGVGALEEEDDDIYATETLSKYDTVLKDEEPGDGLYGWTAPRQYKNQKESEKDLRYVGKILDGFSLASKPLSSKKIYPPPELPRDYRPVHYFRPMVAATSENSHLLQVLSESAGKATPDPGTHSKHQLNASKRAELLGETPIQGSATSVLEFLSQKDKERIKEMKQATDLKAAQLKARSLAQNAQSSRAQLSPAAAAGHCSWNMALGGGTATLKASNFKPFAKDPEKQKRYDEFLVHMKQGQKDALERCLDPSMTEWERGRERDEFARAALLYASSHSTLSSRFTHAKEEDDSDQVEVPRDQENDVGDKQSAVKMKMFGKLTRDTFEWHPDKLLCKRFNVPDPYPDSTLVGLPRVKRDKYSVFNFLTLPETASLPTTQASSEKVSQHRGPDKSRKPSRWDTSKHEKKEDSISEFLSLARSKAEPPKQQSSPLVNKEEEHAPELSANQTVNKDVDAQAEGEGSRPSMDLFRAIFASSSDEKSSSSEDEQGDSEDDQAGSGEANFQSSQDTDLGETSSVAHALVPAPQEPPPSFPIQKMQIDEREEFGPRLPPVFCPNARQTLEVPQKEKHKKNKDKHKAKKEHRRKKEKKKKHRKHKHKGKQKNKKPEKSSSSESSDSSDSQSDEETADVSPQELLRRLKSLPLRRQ
UniProt Q92902: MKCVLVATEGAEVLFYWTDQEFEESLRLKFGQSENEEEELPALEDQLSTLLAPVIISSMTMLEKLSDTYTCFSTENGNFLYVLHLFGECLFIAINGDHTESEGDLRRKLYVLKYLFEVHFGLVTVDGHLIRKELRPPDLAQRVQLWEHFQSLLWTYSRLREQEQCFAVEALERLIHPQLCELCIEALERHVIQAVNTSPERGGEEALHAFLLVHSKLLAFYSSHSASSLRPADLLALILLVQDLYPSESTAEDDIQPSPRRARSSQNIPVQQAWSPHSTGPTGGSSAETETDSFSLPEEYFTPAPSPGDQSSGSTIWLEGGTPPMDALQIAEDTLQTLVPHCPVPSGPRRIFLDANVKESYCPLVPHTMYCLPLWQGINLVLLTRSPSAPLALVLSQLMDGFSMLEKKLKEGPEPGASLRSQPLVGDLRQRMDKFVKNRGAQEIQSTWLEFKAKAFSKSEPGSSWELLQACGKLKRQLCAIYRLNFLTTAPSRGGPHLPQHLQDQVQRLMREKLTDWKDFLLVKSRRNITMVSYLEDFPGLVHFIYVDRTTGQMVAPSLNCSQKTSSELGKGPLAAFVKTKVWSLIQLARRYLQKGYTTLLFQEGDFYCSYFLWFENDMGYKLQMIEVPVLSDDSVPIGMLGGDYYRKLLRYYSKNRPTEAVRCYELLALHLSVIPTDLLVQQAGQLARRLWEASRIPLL
UniProt P31937: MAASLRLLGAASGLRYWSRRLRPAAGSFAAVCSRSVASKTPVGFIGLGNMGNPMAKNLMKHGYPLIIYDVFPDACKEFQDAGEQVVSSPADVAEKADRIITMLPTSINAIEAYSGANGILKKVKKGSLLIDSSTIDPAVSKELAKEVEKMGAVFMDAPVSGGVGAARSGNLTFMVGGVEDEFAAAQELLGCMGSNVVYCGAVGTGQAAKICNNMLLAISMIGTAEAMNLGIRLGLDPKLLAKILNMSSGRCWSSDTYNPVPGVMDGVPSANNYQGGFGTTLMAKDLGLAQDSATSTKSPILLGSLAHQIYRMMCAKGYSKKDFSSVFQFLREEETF
UniProt P05114: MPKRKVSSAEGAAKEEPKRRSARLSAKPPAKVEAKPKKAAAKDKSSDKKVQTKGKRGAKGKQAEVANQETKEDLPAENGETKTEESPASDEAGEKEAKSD
UniProt A4D1E9: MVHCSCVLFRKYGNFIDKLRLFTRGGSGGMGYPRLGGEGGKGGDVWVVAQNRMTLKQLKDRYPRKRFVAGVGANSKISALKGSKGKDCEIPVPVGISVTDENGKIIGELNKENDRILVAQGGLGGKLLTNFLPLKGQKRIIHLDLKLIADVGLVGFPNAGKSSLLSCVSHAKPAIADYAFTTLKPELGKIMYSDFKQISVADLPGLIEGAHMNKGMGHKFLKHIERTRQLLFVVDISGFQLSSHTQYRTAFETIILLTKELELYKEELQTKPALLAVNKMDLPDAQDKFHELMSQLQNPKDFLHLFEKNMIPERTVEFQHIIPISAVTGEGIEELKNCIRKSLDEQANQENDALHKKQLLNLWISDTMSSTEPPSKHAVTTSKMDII
UniProt P30519: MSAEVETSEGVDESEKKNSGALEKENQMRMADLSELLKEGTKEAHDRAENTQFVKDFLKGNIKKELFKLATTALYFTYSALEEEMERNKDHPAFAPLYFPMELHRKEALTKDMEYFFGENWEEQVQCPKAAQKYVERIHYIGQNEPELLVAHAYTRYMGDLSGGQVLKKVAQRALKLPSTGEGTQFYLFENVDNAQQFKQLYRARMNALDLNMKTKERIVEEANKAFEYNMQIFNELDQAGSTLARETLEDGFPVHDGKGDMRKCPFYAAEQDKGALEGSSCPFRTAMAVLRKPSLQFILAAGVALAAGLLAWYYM

Some of the results follow.

Compound in the assay: COc1ccc(Cn2ccc3cc(C)c(C(=O)NO)cc32)cc1
The experiment in a line: dose-dependent thermal stabilisation call (2D-TPP, DLPTP, 10% FDR) (binary (1 = stabilised)); higher = stabilised by the compound. The settings on record: system: HL-60 intact cells; concentration range 0.04-10 µM. The procedure:
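2D thermal proteome profiling in intact HL-60 cells treated with BRD-3811 (0, 0.04, 0.29, 2, 10 uM) for 90 min at 37 C, then heated 3 min at one of 12 temperatures (42-63.9 C). Soluble protein was quantified by TMT10 MS. The value is the DLPTP call of the paper: dose-dependent thermal stabilisation over all temperatures at 10% FDR (F-test of a dose-response against a flat model); one experiment, one call per tested protein.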
Consider GORASP1 (UniProt Q9BQQ3), for which the “dose-dependent thermal stabilisation call” value is inactive: 0. The value for HIBCH (UniProt Q6NVY1) was inactive: 0. The value for H6PD (UniProt O95479) was inactive: 0; that for HDGF2 was inactive: 0. Take GPI (UniProt P06744): the “dose-dependent thermal stabilisation call” value is inactive: 0.

GSTP1 (UniProt P09211): the “dose-dependent thermal stabilisation call” value is inactive: 0.

In the case of GTPBP5 (UniProt Q9H4K7), the “dose-dependent thermal stabilisation call” value was inactive: 0. The value for GPD2 (UniProt P43304) was inactive: 0; that for GYS1 (UniProt P13807) was inactive: 0. The value for GNPNAT1 (UniProt Q96EK6) was inactive: 0.

For the target HK1 (UniProt P19367), the “dose-dependent thermal stabilisation call” value is inactive: 0. The value for HM13 (UniProt Q8TCT9) was inactive: 0. In the case of HERC5 (UniProt Q9UII4), the “dose-dependent thermal stabilisation call” value was inactive: 0.

As for GNL2 (UniProt Q13823), the “dose-dependent thermal stabilisation call” value is inactive: 0.

As to HPS4 (UniProt Q9NQG7), the “dose-dependent thermal stabilisation call” value is inactive: 0. The value for HPS6 (UniProt Q86YV9) was inactive: 0. As for GPR175 (UniProt Q86W33), the “dose-dependent thermal stabilisation call” value is inactive: 0. The value for GOSR1 (UniProt O95249) was inactive: 0; that for HMMR (UniProt O75330) was inactive: 0; that for GPATCH1 (UniProt Q9BRR8) was inactive: 0. The value for GOT1 (UniProt P17174) was inactive: 0; that for HPS1 (UniProt Q92902) was inactive: 0; that for GSDMD (UniProt P57764) was inactive: 0.

Consider HSP90B1 (UniProt P14625), for which the “dose-dependent thermal stabilisation call” value is inactive: 0. The value for HSDL2 (UniProt Q6YN16) was inactive: 0; that for HIBADH (UniProt P31937) was inactive: 0. The value for GTF3C5 (UniProt Q9Y5Q8) was inactive: 0; that for H2AFX (UniProt P16104) was inactive: 0; that for HMGN1 (UniProt P05114) was inactive: 0.

Consider GOSR2 (UniProt O14653), for which the “dose-dependent thermal stabilisation call” value was inactive: 0. The value for GTPBP10 (UniProt A4D1E9) was inactive: 0; that for GTF2E1 (UniProt P29083) was inactive: 0.

In the case of HNRNPF (UniProt P52597), the “dose-dependent thermal stabilisation call” value was inactive: 0.

With HIST1H1D (UniProt P16402), the “dose-dependent thermal stabilisation call” value was inactive: 0. In the case of GPR183 (UniProt P32249), the “dose-dependent thermal stabilisation call” value is inactive: 0. The same measure for HMOX2 (UniProt P30519): active: 1.
